In patent publication EP0584290B1 (WARNER-LAMBERT COMPANY, priority 1991, dated 1992):
HELM strings list residues between dots; [ac] is acetyl, [am] amide, other brackets name non-standard units.

Assay: general procedure: Boc solid-phase peptide synthesis; Boc-Trp(For)-PAM resin; dicyclohexylcarbodiimide; activated esters or anhydrides of N-alpha-Boc amino ac
Conditions: whole synthesis, scale 0.43 meq

In the case of PEPTIDE1{[ac].[dF].L.D.I.I.W}$$$$V2.0, the isolated mass is reported as 14.8 mg.
